Among the data in PMC8933275 are binding values, retold here.

Sequences of proteins named here, by UniProt entry; tags and fusion partners are left off. Residues count along the entry.
UniProt P01033, residues 24-207: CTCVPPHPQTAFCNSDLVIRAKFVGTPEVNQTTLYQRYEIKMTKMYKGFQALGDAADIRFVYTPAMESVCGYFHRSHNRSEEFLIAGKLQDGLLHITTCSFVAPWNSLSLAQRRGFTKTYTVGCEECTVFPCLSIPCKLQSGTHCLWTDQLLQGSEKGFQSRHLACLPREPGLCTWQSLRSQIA

The target in test [1] is Extravesicular tissue inhibitor of matrix metalloproteinase-1 (TIMP1^EV) (human (endogenous in EVs of HCT116, HT29, SW620)) (UniProt P01033). Put plainly: co-IP; immunoprecipitation of TIMP1 with an anti-TIMP1 antibody from EVs of CRC cell lines (HCT116, HT29, SW620); rabbit isotype control IgG as negative control; immunoblot for CD63, HSP90AA and TIMP1. On the technique in general: Immunoblotting shows a protein as a band on a membrane.

Test [2] concerns the target TIMP1 in liver-derived primary fibroblasts (pFs) (UniProt P01033). Nature of the test: co-IP; immunoprecipitation of TIMP1 from pFs treated with CRC-EVs (HCT116, HT29, SW620) for 48 h; immunoblot of the immunocomplexes.
The target is the same in test [3]. Put plainly: condition: only pFs treated with CM instead of CRC-EVs; co-IP; immunoprecipitation of TIMP1 from CM-treated pFs (controls, conditioned medium depleted of EVs); immunoblot of the immunocomplexes.

These are yes or no findings as the source states them, for the method shown. In cells and extracts the contact can be indirect. Some results given as binding are weak or reduced against the parent protein; the word gives no strength.

With HSP90AA (from UniProt P07900 1-732), in test [1], the binding result was “binds”. With “HSP90AA in liver-derived primary fibroblasts (pFs) (from UniProt P07900 1-732)”, the binding result in test [2] was “binds”; in test [3], “no binding”.
